Results taken from publication PMC3335008.
These are yes or no findings as the source states them, for the method shown. In cells and extracts the contact can be indirect. For some assays here: A result given as binding can be weak or reduced; the word gives no strength. Blank lines part the entries; values can stand above or below the molecule they belong to.

Experiments:
[1] = target: T1, TIAR, endogenous (human (endogenous in SK-N-BE(2)C)) (UniProt Q01085); experiment: co-IP; anti-TIAR on sonicated lysates of SK-N-BE(2)C cells transfected with EGFP, EGFP-C1a or EGFP-C1b and kept at 37°C or 44°C for 1 h; Western blot
T1 sequence: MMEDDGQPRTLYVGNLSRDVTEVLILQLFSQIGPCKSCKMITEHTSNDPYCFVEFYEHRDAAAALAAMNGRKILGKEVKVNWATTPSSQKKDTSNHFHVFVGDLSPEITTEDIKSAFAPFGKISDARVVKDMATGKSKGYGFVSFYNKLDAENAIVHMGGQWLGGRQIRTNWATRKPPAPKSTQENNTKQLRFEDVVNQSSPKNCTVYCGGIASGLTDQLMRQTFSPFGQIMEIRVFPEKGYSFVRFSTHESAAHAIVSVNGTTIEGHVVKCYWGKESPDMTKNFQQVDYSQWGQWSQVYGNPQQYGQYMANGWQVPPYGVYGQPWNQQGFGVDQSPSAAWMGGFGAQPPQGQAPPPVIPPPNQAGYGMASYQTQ

[2] = target: EGFP fusion of the C1b domain of PKCα (human); experiment: co-IP; EGFP fusions of PKCα domains expressed in SK-N-BE(2)C cells, precipitated with anti-GFP-conjugated magnetic beads; polysome lysis buffer (100 mM KCl, 5 mM MgCl2, 10 mM HEPES, 1 mM DTT, 1% IgePAL CA-630, pH 7.0); Western blot for endogenous partners
[3] = target: EGFP fusion of the regulatory domain of PKCα (human); experiment: as above
[4] = target: EGFP fusion of the C1a domain of PKCα (human); experiment: as above

binding [1]: no binding
Molecule: EGFP fusion of the C1b domain of PKCα (human) (domain or fragment)

binding [1]: binds
Molecule: EGFP fusion of the C1a domain of PKCα (human) (domain or fragment)

binding [2]: no binding | binding [3]: binds | binding [4]: binds
B1: RasGAP binding protein 2 (G3BP2), endogenous (protein, UniProt Q9UN86 1-482)
chain: MVMEKPSPLLVGREFVRQYYTLLNKAPEYLHRFYGRNSSYVHGGVDASGKPQEAVYGQNDIHHKVLSLNFSECHTKIRHVDAHATLSDGVVVQVMGLLSNSGQPERKFMQTFVLAPEGSVPNKFYVHNDMFRYEDEVFGDSEPELDEESEDEVEEEQEERQPSPEPVQENANSGYYEAHPVTNGIEEPLEESSHEPEPEPESETKTEELKPQVEEKNLEELEEKSTTPPPAEPVSLPQEPPKAFSWASVTSKNLPPSGTVSSSGIPPHVKAPVSQPRVEAKPEVQSQPPRVREQRPRERPGFPPRGPRPGRGDMEQNDSDNRRIIRYPDSHQLFVGNLPHDIDENELKEFFMSFGNVVELRINTKGVGGKLPNFGFVVFDDSEPVQRILIAKPIMFRGEVRLNVEEKKTRAARERETRGGGDDRRDIRRNDRGPGGPRGIVGGGMMRDRDGRGPPPRGGMAQKLGSGRGTGQMEGRFTGQRR
